The text below walks through data of publication PMC4660202.

The chains behind the UniProt entries cited, without tags or fusion partners. Residues count along the entry.
UniProt P08920, residues 23-344: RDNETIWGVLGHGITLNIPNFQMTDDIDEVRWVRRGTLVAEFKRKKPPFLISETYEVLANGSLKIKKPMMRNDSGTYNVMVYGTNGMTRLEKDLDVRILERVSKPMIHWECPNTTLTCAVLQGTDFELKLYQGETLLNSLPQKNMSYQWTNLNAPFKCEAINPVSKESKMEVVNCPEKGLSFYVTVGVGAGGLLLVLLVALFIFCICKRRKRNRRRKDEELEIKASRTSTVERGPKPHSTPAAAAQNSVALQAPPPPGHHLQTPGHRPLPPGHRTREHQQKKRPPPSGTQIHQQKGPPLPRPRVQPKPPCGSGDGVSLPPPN

Assay [1] addresses mouse CD2-mCherry (mouse) (UniProt P08920). In words: single-molecule brightness analysis (photon-counting histogram, PCMH); plasma membrane fraction of COS-7 cells solubilised with 1% Triton X-100 in PBS.
For assay [2] the target is unchanged. Nature of the assay: single-molecule brightness analysis (photon-counting histogram, PCMH); lysates of spermatozoa or of COS-7 cells in 1% Triton X-100/PBS, supernatant after 15,000g; brightness of mCherry fusions compared with mCherry, CD2-mCherry (monomer) and MYOCILIN-mCherry (dimer).

Results are given in words; binding and its absence hold for the method and conditions named.

As to “mouse CD2-mCherry (from UniProt P08920 23-344)”, the binding entry in assay [1] and in assay [2] was “no binding” each time.
